{
  "source": "patent US9511120B2",
  "about": "“Use of the angiotensin-(1-9) peptide or derivatives thereof, use of vectors overexpressing the ACE2 enzyme that produces angiotensin-(1-9) for preparing medicaments useful for preventing, reverting, inhibiting and/or reducing hypertension and/or inducing vasodilation” (PONTIFICA UNIVERSIDAD CATÓLICA DE CHILE, priority 2012, dated 2016)",
  "origin": "cited, not measured here",
  "tested_on": "angiotensin-(1-9)",
  "details": "administration of the drug; cited from earlier work",
  "note": "At least one structure is not confirmed: it was looked up by name or label, or the drawing left a doubt.",
  "data": [
    {"molecule": "CCOc1nc2cccc(C(=O)O)c2n1Cc1ccc(-c2ccccc2-c2nnn[nH]2)cc1", "note": "[candesartan]", "values": [
      {"measurement": "plasma and/or tissue levels of angiotensin-(1-9)", "result": "increase"}
    ]}
  ]
}
